# Patent US20040204383A1, “Lysophosphatidic acid analogs and inhibition of neointima formation” (priority 2003, published 2004)
# At least one structure is not confirmed: it was looked up by name or label, or the drawing left a doubt.
# Columns and labels:
# [1] = tested on: CD36(−273)-Rluc reporter gene; assay: CD36(−273)-Rluc reporter gene (with PPRE) in CV-1 cells; format: cell-based; details: 10 μM, CV-1 cells (FIG. 7E)
# Procedure: (§1) Therefore, the investigators compared the unique in vivo neointima-eliciting lysophosphatidic acid structure-activity relationship with that of PPARγ using an in vitro assay that utilizes an acyl-coenzyme A oxidase-luciferase (PPRE-Acox-Rluc) reporter gene construct containing a peroxisome proliferator-activated receptor response element. CV-1 cells were plated in 96-well plates (5×10^3 cells per well) in DME supplemented with 10% FBS. The next day, the cells were transiently transfected with 125 ng of pGL3-PPRE-acyl-CoA oxidase (Acox)-renilla luciferase), or 125 ng pGL3-CD36(−273), or pGL3-CD36(−261), 62.5 ng of pcDNAI-PPARγ, and 12.5 ng of pSV-β-galactosidase (Promega) using LipofectAMINE™ 2000 (Invitrogen). Twenty four hours after transfection, cells were treated with 1% FBS-supplemented OptiMEMI™ (Invitrogen) containing DMSO or test compound (10 μM) in DMSO for 20 h. Luciferase and β-galactosidase activities were measured with the Steady-Glo® Luciferase Assay System (Promega) and the Galacto-Light Plus™ System (Applied Biosystems), respectively. Samples were run in quadruplicate, and the mean±SE were calculated. Data are representative of at least three independent transfections. Student's t test was used for null hypothesis testing, and P<0.05 was considered significant.
# [2] = tested on: CD36(−261)-Rluc reporter gene; assay: CD36(−261)-Rluc reporter gene (deleted PPRE) in CV-1 cells; format: cell-based; details: 10 μM, CV-1 cells (FIG. 7E)
# Procedure: as §1
# [3] = tested on: vascular smooth muscle cells; assay: Phenotypic modulation and dedifferentiation of cultured VSMCs (morphology, hCAD mRNA); format: cell-based, rat; details: 1 μM for 3 days, cultures established in 2 ng/ml IGF-1
# Procedure: Expression of lysophosphatidic acid-specific G protein-coupled plasma membrane receptors in rat carotid arteries was examined by RT-PCR as described earlier by Wang et al. (2002). To quantify heavy caldesmon mRNA, quantitative PCR was performed applying the real-time SYBR Green PCR method using a Sequence Detection System Model 7700 (Applied Biosystems) instrument. Rat heavy caldesmon and GAPDH (reference control mRNA)-specific primers were designed with Primer Express Software (Applied Biosystems), and forward and reverse primers were as follows: 5′-[…]-3′ (SEQ ID NO:1) and 5′-[…]-3′ (SEQ ID NO:2) for heavy caldesmon; 5′-[…]-3′ (SEQ ID NO:3) and 5′-[…]-3′ (SEQ ID NO:4) for GAPDH. Amplification reaction was performed with SYBR Green PCR Master Mix (Applied Biosystems) following the manufacturer's protocol. mRNA abundance calculation was based on Ct values as described previously (Wang et al., 2002). The expression level of heavy caldesmon mRNA was normalized to GAPDH mRNA. Each PCR reaction was performed at least three times, and the result was expressed as mean±SEM. Statistical comparison of mRNA expression was evaluated by ANOVA, and P<0.05 was considered statistically significant.
# It has been reported that unsaturated lysophosphatidic acid species induced phenotypic modulation of cultured vascular smooth muscle cells (VSMCs). […]
structure (smiles),measurement,setting,value
"CN(CCOc1ccc(CC2SC(=O)NC2=O)cc1)c1ccccn1 (stereo not drawn) [Rosi, Rosiglitazone]",stimulation of CD36(−273)-Rluc reporter gene,[1],elicited significant stimulation
same,stimulation of CD36(−261)-Rluc reporter gene (deleted PPRE),[2],neither Rosi nor lysophosphatidic acid 20:4 activated the reporter gene
same,morphology of VSMCs,[3],developed a fibroblast-like flattened morphology
